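A cell-based FRET test of anthrax lethal toxin entry, tracked through the 460 nm emission signal; the cell line is not named here.
Each compound was tested as a concentration series from about 0.0005 to 40 µM.
The number is the fitted AC50 of the 460 nm signal alone; lower values mean a more potent effect. A falling signal goes with compounds filed as inhibitors or cytotoxic, a rising one with activators or fluorescent compounds (inferred from the filed classes).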

Values are in nM.
Common to all entries: measured here: 460 nm channel.
Part of the compounds only, not a random draw; the main read-out is not listed here.
A potency from a partial, single-point or poor curve is only a rough figure.
The first word of each remark tells which way the curve ran; it can be opposite to the aim of the assay.

compound: Clc1ccc(CCNc2ncnc3nc[nH]c23)cc1
AC50 (nM): 31.62
curve as filed: falling, full curve, poor fit

compound: COc1ccc(-c2nc(CSCC(=O)N3CCN(c4cccc(C)c4)C(C)C3)c(C)o2)cc1OC (centres unmarked)
AC50 (nM): 12589
curve as filed: falling, partial curve

compound: Clc1ccc(Cn2cccc2C2=NCCO2)cc1
AC50 (nM): 31622
curve as filed: falling, single point

compound: CN(C)CC/C=C1\c2ccccc2Sc2ccc(Cl)cc21
AC50 (nM): 10000
curve as filed: falling, partial curve

compound: Cc1ccc(S(=O)(=O)N2CCN(C(=O)c3cc(=O)[nH]c4ccccc34)CC2)c(C)c1
AC50 (nM): 1995
curve as filed: rising, partial curve

compound: COC(=O)c1c(NC(=O)CC2SCC(C(=O)OC)NC2=O)sc2c1CCCC2 (centres unmarked)
AC50 (nM): 31622
curve as filed: falling, single point

compound: COc1cc2c(cc1OC)[C@@]13CCN4CC5=CCO[C@H](CC(=O)O)[C@@H]([C@H]1N2)[C@H]5C[C@H]43
AC50 (nM): 1000
curve as filed: falling, partial curve

compound: COc1cccc(Cn2c(=O)c(-c3ccc(F)cc3)nc3cnc(OC)nc32)c1
AC50 (nM): 5012
curve as filed: falling, single point

compound: CCC1CCCCN1CCn1c(=S)[nH]c2cc(OC)c(OC)cc2c1=O (centres unmarked)
AC50 (nM): 31622
curve as filed: falling, single point

compound: Cc1nc2cncnc2n(Cc2ccccc2Cl)c1=O
AC50 (nM): 15848
curve as filed: rising, single point

compound: CC1CCc2nc(NC(=O)CSc3nc4ccccc4o3)sc2C1 (centres unmarked)
AC50 (nM): 12589
curve as filed: falling, partial curve, poor fit

compound: COC(=O)[C@@H]1[C@@H](O)[C@@]2(O)c3c(OC)cc(OC)cc3O[C@@]2(c2ccc(OC)cc2)[C@H]1c1ccccc1
AC50 (nM): 31.62
curve as filed: falling, full curve

compound: Cc1cc(C)c(OCC(=O)Nc2ccccc2N2CCOCC2)c(C)c1
AC50 (nM): 10000
curve as filed: falling, partial curve, poor fit

compound: N=C(N)c1ccc(N=Nc2c(O)ccc3c2[nH]c2ccccc23)cc1
AC50 (nM): 3162
curve as filed: falling, single point

compound: CCCCc1ccc2nc(NC(=O)OC)[nH]c2c1
AC50 (nM): 79.43
curve as filed: falling, full curve

compound: COC(=O)C1C(=O)c2c([nH]c(C(=O)OC3CCCC3C)c2C)CC1C (centres unmarked)
AC50 (nM): 316.2
curve as filed: falling, full curve, poor fit

compound: Cn1cccc1Cc1nnc(SCC(=O)Nc2nc3ccccc3s2)n1CCc1ccccc1
AC50 (nM): 5012
curve as filed: rising, single point

compound: Nc1c(S(=O)(=O)c2cccc(Cl)c2)c2nc3ccccc3nc2n1/N=C/c1ccc(O)c(O)c1
AC50 (nM): 7943
curve as filed: falling, partial curve

compound: O=C(c1ccc(S(=O)(=O)N2CCCCC2)cc1)N1CCN(Cc2ccc3c(c2)OCO3)CC1
AC50 (nM): 1995
curve as filed: rising, partial curve

compound: CN(C)c1ccc(Nc2nc(-c3cccnc3)cs2)cc1
AC50 (nM): 1259
curve as filed: rising, partial curve

compound: OCCN1CCN(c2ncnc3c2sc2nc(N4CCOCC4)c4c(c23)CCC4)CC1
AC50 (nM): 15848
curve as filed: falling, partial curve

compound: CCCOC(=O)C1=C(C)NC2=C(C(=O)C(C(=O)OC)C(C)C2)C1c1ccc(N(C)C)cc1 (centres unmarked)
AC50 (nM): 25118
curve as filed: rising, single point

compound: CCOC(=O)c1cc(CC)sc1NC(=O)Cc1ccsc1
AC50 (nM): 7943
curve as filed: falling, partial curve

compound: Cc1ccc(S(=O)(=O)c2c(N)n(C)c3nc4ccccc4nc23)cc1
AC50 (nM): 5012
curve as filed: rising, single point

compound: CC(=O)N1CCC2(CCCN(C(=O)Nc3cccc(C#N)c3)C2)CC1
AC50 (nM): 25.12
curve as filed: falling, full curve, poor fit

compound: N#Cc1c(-c2ccco2)cc(-c2ccccn2)nc1N
AC50 (nM): 19952
curve as filed: falling, single point

compound: c1ccc(N2CCC3(CCNCC3)CC2)nc1
AC50 (nM): 10000
curve as filed: rising, single point

compound: CCCc1cc(=O)n2[nH]c(NCc3c(Cl)cccc3Cl)nc2n1
AC50 (nM): 39.81
curve as filed: falling, full curve, poor fit

compound: CCc1nnc(NC(=O)c2ccncc2)s1
AC50 (nM): 10000
curve as filed: falling, single point

compound: Cc1nc(-c2ccccc2)nc2[nH]c(=O)n(-c3ccccc3)c(=O)c12
AC50 (nM): 19.95
curve as filed: rising, full curve

compound: CCCCC1CCC(c2nc(-c3ccccn3)no2)CC1 (centres unmarked)
AC50 (nM): 31622
curve as filed: falling, single point

Data taken from PubChem BioAssay AID912, deposited by NCATS (2007).